Measurements: the supplement of paper PMC4604168 (melanoma cell lines)
Some of the results follow. Many values rest on one well or one pass, so single values are uncertain.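 Cells were imaged in 1,536-well plates, and nuclei stained with an antibody against cleaved PARP were counted against all DNA-stained nuclei to give the apoptosis fraction. Screening doses were chosen to leave most cells alive, and resting and induced cleaved-PARP levels differ strongly between cell lines.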

Legend:
Assay in all cases: cleaved PARP positive nuclei fraction relative to DMSO control; melanoma cells; higher = more apoptosis
Conditions in all cases: library dose: low library concentration; 72 h
MZ2-MEL = system: MZ2-MEL
MeWo = system: MeWo
RPMI7951 = system: RPMI7951
RVH-421 = system: RVH-421
SkMel28 = system: SkMel28
SkMel2 = system: SkMel2
SkMel30 = system: SkMel30
SkMel5 = system: SkMel5
UACC257 = system: UACC257
UACC62 = system: UACC62
WM115 = system: WM115
WM1716 = system: WM1716
WM1745 = system: WM1745
WM3526 = system: WM3526
WM3619 = system: WM3619
WM451Lu = system: WM451Lu

SMILES | cleaved PARP positive nuclei fraction (MZ2-MEL) | cleaved PARP positive nuclei fraction (MeWo) | cleaved PARP positive nuclei fraction (RPMI7951) | cleaved PARP positive nuclei fraction (RVH-421) | cleaved PARP positive nuclei fraction (SkMel28) | cleaved PARP positive nuclei fraction (SkMel2) | cleaved PARP positive nuclei fraction (SkMel30) | cleaved PARP positive nuclei fraction (SkMel5) | cleaved PARP positive nuclei fraction (UACC257) | cleaved PARP positive nuclei fraction (UACC62) | cleaved PARP positive nuclei fraction (WM115) | cleaved PARP positive nuclei fraction (WM1716) | cleaved PARP positive nuclei fraction (WM1745) | cleaved PARP positive nuclei fraction (WM3526) | cleaved PARP positive nuclei fraction (WM3619) | cleaved PARP positive nuclei fraction (WM451Lu)
COc1ccc(C2=N[C@@H](c3ccc(Cl)cc3)[C@@H](c3ccc(Cl)cc3)N2C(=O)N2CCNC(=O)C2)c(OC(C)C)c1 [Nutlin-3] + Cc1cc(SCc2sc(-c3ccc(C(F)(F)F)c(F)c3)nc2C)ccc1OCC(=O)O [GW0742] (first compound 0.1 µM, partner dose 2 µM) | 123% | 224% | 69.6% | 90.7% | 101% | 114% | 31.2% | 80.5% | 63.5% | 80.5% | 35.7% | 61.3% | 93% | 76.6% | 79.3% | 285%
C[As](C)SC[C@H](NC(=O)CC[C@H](N)C(=O)O)C(=O)NCC(=O)O [Darinaparsin] + Cc1ccc(NC(=O)c2cccc(N(C)C)c2)cc1NC(=O)c1ccc(O)cc1 [ZM336372] (first compound 0.4 µM, partner dose 2 µM) | 92% | 53.4% | 138% | 96.6% | 126% | 61% | 99% | 205% | 251% | 225% | 84.1% | 67.1% | 80.8% | 60.5% | 66.5% | 96.6%
Cc1ccc(Nc2nccc(N(C)c3ccc4c(C)n(C)nc4c3)n2)cc1S(N)(=O)=O [Pazopanib] + Cn1cc(C2=C(c3cn(C4CCN(Cc5ccccn5)CC4)c4ccccc34)C(=O)NC2=O)c2ccccc21 [Enzastaurin] (first compound 0.4 µM, partner dose 0.8 µM) | 95.1% | 54.6% | 116% | 88.9% | 84.2% | 33.1% | 69% |  |  | 90.7% | 96.5% | 77.2% | 107% | 44.5% | 84.1% | 125%
N.N.[Cl][Pt][Cl] [cisplatin] + CCCCCCCCCCCC1=C(O)C(=O)C=C(O)C1=O [Embelin] (first compound 1.6 µM, partner dose 1.2 µM) | 109% | 145% | 138% | 196% | 148% | 65.3% | 130% | 63.2% | 74% | 46% | 69.5% | 45.1% | 79.1% | 51.4% | 86.8% | 60.2%
CCCCCCCCCCCCCCCCCCOP(=O)([O-])OC1CC[N+](C)(C)CC1 [Perifosine] + C/C(O)=C(\C#N)C(=O)Nc1cc(Br)ccc1Br [LFM-A13] (first compound 0.4 µM, partner dose 2 µM) | 127% | 87% | 104% | 175% | 200% | 90.3% | 116% | 86.6% | 214% | 70.8% | 92.9% | 48.6% | 92.2% | 90.9% | 82.7% | 117%
C[C@]1(O)C[C@@H](c2nc(-c3ccc4ccc(-c5ccccc5)nc4c3)c3c(N)nccn32)C1 + O=C(Oc1ccc([N+](=O)[O-])cc1)N1CCC(C(O)(c2ccc3c(c2)OCO3)c2ccc3c(c2)OCO3)CC1 [JZL184] (first compound 0.4 µM, partner dose 1 µM) | 144% | 200% | 276% | 27% | 56.6% | 59% | 81.3% | 86.4% | 210% | 180% | 119% | 43.4% | 112% | 86.6% | 97.8% | 40.2%
CCCS(=O)(=O)Nc1ccc(F)c(C(=O)c2c[nH]c3ncc(Cl)cc23)c1F + C[As](C)SC[C@H](NC(=O)CC[C@H](N)C(=O)O)C(=O)NCC(=O)O [Darinaparsin] (first compound 0.08 µM, partner dose 0.4 µM) | 94.1% | 88.5% | 116% | 133% | 52.2% | 100% | 73% |  |  | 315% | 78% | 84.5% | 88% | 102% | 98.9% | 70.2%
CN1CCN(c2ccc3nc(-c4c(N)c5c(F)cccc5[nH]c4=O)[nH]c3c2)CC1 [Dovitinib] + C/C(O)=C(\C#N)C(=O)Nc1cc(Br)ccc1Br [LFM-A13] (first compound 0.1 µM, partner dose 2 µM) | 145% | 49.1% | 44.3% | 100% | 455% | 19% | 159% | 71.6% | 69% | 146% | 119% | 48.3% | 102% | 153% | 110% | 89.4%
Cc1cc(Nc2cc(N3CCN(C)CC3)nc(Sc3ccc(NC(=O)C4CC4)cc3)n2)n[nH]1 [Tozasertib] + N.N.[Cl][Pt][Cl] [cisplatin] (first compound 0.006 µM, partner dose 1.6 µM) | 5300% | 129% | 153% | 147% | 167% | 129% | 80.5% |  |  | 67.5% | 97.9% | 86.3% | 188% | 148% | 90% | 96.5%
COc1ccc(C2=N[C@@H](c3ccc(Cl)cc3)[C@@H](c3ccc(Cl)cc3)N2C(=O)N2CCNC(=O)C2)c(OC(C)C)c1 [Nutlin-3] + O=C(Oc1ccc([N+](=O)[O-])cc1)N1CCC(C(O)(c2ccc3c(c2)OCO3)c2ccc3c(c2)OCO3)CC1 [JZL184] (first compound 0.1 µM, partner dose 1 µM) | 225% | 24.8% | 143% | 76.1% | 118% | 177% | 196% | 91.3% | 133% | 78.1% | 79.4% | 72.9% | 89.3% | 167% | 107% | 34%
Cc1ccc(Nc2nccc(N(C)c3ccc4c(C)n(C)nc4c3)n2)cc1S(N)(=O)=O [Pazopanib] + N.N.[Cl][Pt][Cl] [cisplatin] (first compound 0.4 µM, partner dose 1.6 µM) | 108% | 195% | 32.5% | 97.4% | 75.3% | 46.7% | 58.5% |  |  | 25% | 91.6% | 73.7% | 107% | 46.4% | 99.6% | 53.8%
Nc1ncn([C@H]2C[C@H](O)[C@@H](CO)O2)c(=O)n1 [decitabine] + C[As](C)SC[C@H](NC(=O)CC[C@H](N)C(=O)O)C(=O)NCC(=O)O [Darinaparsin] (first compound 0.1 µM, partner dose 0.4 µM) | 116% | 36.9% | 89.2% | 152% | 96.2% | 95.7% | 103% |  |  | 199% | 61.4% | 206% | 92.8% | 48% | 99.2% | 97.6%
Cn1cc(C2=C(c3cn(C4CCN(Cc5ccccn5)CC4)c4ccccc34)C(=O)NC2=O)c2ccccc21 [Enzastaurin] + O=S(=O)(c1ccccc1)N(CC(F)(F)F)c1ccc(C(O)(C(F)(F)F)C(F)(F)F)cc1 [T0901317] (first compound 0.8 µM, partner dose 1.4 µM) | 78.3% | 31.9% | 107% | 112% | 218% | 187% | 83.7% | 90.4% | 335% | 124% | 188% | 327% | 103% | 141% | 104% | 70.5%
Cn1cc(C2=C(c3cn(C4CCN(Cc5ccccn5)CC4)c4ccccc34)C(=O)NC2=O)c2ccccc21 [Enzastaurin] + C=C(c1ccc(C(=O)O)cc1)c1cc2c(cc1C)C(C)(C)CCC2(C)C [Bexarotene] (first compound 0.8 µM, partner dose 2 µM) | 59.3% | 477% | 111% | 134% | 104% | 150% | 107% |  |  | 75% | 73.6% | 382% | 109% | 76.3% | 110% | 127%
O=C(O)c1ccc2c(c1)nc(Nc1cccc(Cl)c1)c1ccncc12 + C[As](C)SC[C@H](NC(=O)CC[C@H](N)C(=O)O)C(=O)NCC(=O)O [Darinaparsin] (first compound 0.4 µM, partner dose 0.4 µM) | 235% | 177% | 133% | 123% | 39.2% | 125% | 87.8% |  |  | 131% | 41% | 159% | 116% | 27.1% | 80.4% | 51%
Cn1sc(=O)n(Cc2ccccc2)c1=O + N.N.[Cl][Pt][Cl] [cisplatin] (first compound 0.4 µM, partner dose 1.6 µM) | 180% | 315% | 69.7% | 56.9% | 73.4% | 98.4% | 150% |  |  | 58.2% | 285% | 732% | 101% | 92% | 91.9% | 43.2%
N.N.[Cl][Pt][Cl] [cisplatin] + CNC(=O)c1cc(Oc2ccc(NC(=O)Nc3ccc(Cl)c(C(F)(F)F)c3)cc2)ccn1 [sorafenib] (first compound 1.6 µM, partner dose 0.4 µM) | 108% | 141% | 110% | 86.5% | 169% | 116% | 139% |  |  | 41.8% | 136% | 38% | 95.3% | 84.1% | 105% | 138%
N.N.[Cl][Pt][Cl] [cisplatin] + CC(=O)c1c(C)c2cnc(Nc3ccc(N4CCNCC4)cn3)nc2n(C2CCCC2)c1=O [palbociclib] (first compound 1.6 µM, partner dose 0.04 µM) | 380% | 141% | 71.9% | 71.4% | 87.2% | 158% | 146% |  |  | 113% | 98.7% | 62.9% | 90.2% | 145% | 103% | 105%
Cn1cc(C2=C(c3cn(C4CCN(Cc5ccccn5)CC4)c4ccccc34)C(=O)NC2=O)c2ccccc21 [Enzastaurin] + NC(=O)c1ccc(N(C(N)=O)c2c(F)cccc2F)nc1-c1ccc(F)cc1F [VX702] (first compound 0.8 µM, partner dose 0.4 µM) | 69.3% | 108% | 68.2% | 55.5% | 206% | 58.8% | 131% |  |  | 54.7% | 46.2% | 138% | 104% | 46% | 86.1% | 126%

Only cleaved PARP positive nuclei fraction (WM3526) and cleaved PARP positive nuclei fraction (SkMel28) (2 entries from above):
SMILES	cleaved PARP positive nuclei fraction (WM3526)	cleaved PARP positive nuclei fraction (SkMel28)
COc1ccc(C2=N[C@@H](c3ccc(Cl)cc3)[C@@H](c3ccc(Cl)cc3)N2C(=O)N2CCNC(=O)C2)c(OC(C)C)c1 [Nutlin-3] + Cc1cc(SCc2sc(-c3ccc(C(F)(F)F)c(F)c3)nc2C)ccc1OCC(=O)O [GW0742] (first compound 0.1 µM, partner dose 2 µM)	76.6%	101%
Cn1cc(C2=C(c3cn(C4CCN(Cc5ccccn5)CC4)c4ccccc34)C(=O)NC2=O)c2ccccc21 [Enzastaurin] + O=S(=O)(c1ccccc1)N(CC(F)(F)F)c1ccc(C(O)(C(F)(F)F)C(F)(F)F)cc1 [T0901317] (first compound 0.8 µM, partner dose 1.4 µM)	141%	218%
